Measured values published in publication PMC10156107.
Results are given in words; binding and its absence hold for the method and conditions named. A result given as binding can be weak or reduced; the word gives no strength. Sequences can lack the tags named with a protein.

Biological target: T1, SlNRC1^NB-ARC (NB-ARC domain of tomato NRC1), untagged (tomato (Solanum lycopersicum)) (UniProt A1X877)
T1 sequence: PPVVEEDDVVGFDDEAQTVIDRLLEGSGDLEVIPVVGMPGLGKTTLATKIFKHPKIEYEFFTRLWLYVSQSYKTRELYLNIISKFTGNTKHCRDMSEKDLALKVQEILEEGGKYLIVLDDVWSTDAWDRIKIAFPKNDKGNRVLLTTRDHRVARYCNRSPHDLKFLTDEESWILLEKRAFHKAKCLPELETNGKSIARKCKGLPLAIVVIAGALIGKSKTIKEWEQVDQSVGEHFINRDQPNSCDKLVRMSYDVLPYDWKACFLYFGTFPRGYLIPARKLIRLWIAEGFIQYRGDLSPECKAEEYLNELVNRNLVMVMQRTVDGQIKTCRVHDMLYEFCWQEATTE
Assay: crystal structure; X-ray, 4.5 Å; complex formed from the two purified proteins in a 1:1 molar ratio and gel-filtered; crystals in 0.1 M MES pH 6.5, 10% PEG-8000, 20% ethylene glycol, 18°C; space group P6_1, two copies of each component in the asymmetric unit; both purified

## Recombinant SS15 protein (lacking signal peptide), untagged (Globodera rostochiensis)
  binding: binds
